Experimental data as given in US20190374627A1, “TARGET PEPTIDES FOR CANCER THERAPY AND DIAGNOSTICS” (priority 2016, published 2019).

test system: colorectal cancer; assay: Presence of the phosphopeptide in previously analyzed colorectal cancer samples; set-up: key: The presence of phosphopeptides in previously analyzed samples including leukemia, colorectal cancer, melanoma, ovarian cancer, breast cancer, and esophageal cancer is indicated by ✓

Colorectal, ✓:
7 (DLKRRSMSI; (6)...(6) The amino acid at this position is optionally phosphorylated; listed as Homo sapiens) [compound 7], 9 (FLDTPIAKV; (4)...(4) The amino acid at this position is optionally phosphorylated; listed as Homo sapiens) [compound 9], 34 (RLASYLDRV; (4)...(4) The amino acid at this position is optionally phosphorylated; listed as Homo sapiens) [compound 34], 59 (SISSMEVNV; (4)...(4) The amino acid at this position is optionally phosphorylated; listed as Homo sapiens) [compound 59], 71 (SVKPRRTSL; (8)...(8) The amino acid at this position is optionally phosphorylated; listed as Homo sapiens) [compound 71], 78 (APDSPRAFL; (4)...(4) The amino acid at this position is optionally phosphorylated; listed as Homo sapiens) [compound 78], 87 (FRGRYRSPY; (7)...(7) The amino acid at this position is optionally phosphorylated; listed as Homo sapiens) [compound 87], 96 (HRYSTPHAF; (4)...(4) The amino acid at this position is opti onally phosphorylated; listed as Homo sapiens) [compound 96], 99 (KPRPLSMDL; (6)...(6) The amino acid at this position is optionally phosphorylated; listed as Homo sapiens) [compound 99], 102 (KPRSPFSKI; (4)...(4) The amino acid at this position is optionally phosphorylated; listed as Homo sapiens) [compound 102], 117 (LPRSSSMAAGL; (6)...(6) The amino acid at this position is optionally phosphorylated; listed as Homo sapiens) [compound 117], 130 (RPASPSLQL; (4)...(4) The amino acid at this position is optionally phosphorylated; listed as Homo sapiens) [compound 130], 131 (RPASPSLQLL; (4)...(4) The amino acid at this position is optionally phosphorylated; listed as Homo sapiens) [compound 131], 133 (RPDSPTRPTL; (4)...(4) The amino acid at this position is optionally phosphorylated; listed as Homo sapiens) [compound 133], 135 (RPDVAKRLSL; (9)...(9) The amino acid at this position is optionally phosphorylated; listed as Homo sapiens) [compound 135], 136 (RPFHGISTVSL; (10)...(10) The amino acid at this position is optionally phosphorylated; listed as Homo sapiens) [compound 136], 138 (RPGSRQAGL; (4)...(4) The amino acid at this position is optionally phosphorylated; listed as Homo sapiens) [compound 138], 141 (RPISPRIGAL; (4)...(4) The amino acid at this position is optionally phosphorylated; listed as Homo sapiens) [compound 141], 144 (RPKSPLSKM; (4)...(4) The amino acid at this position is optionally phosphorylated; listed as Homo sapiens) [compound 144], 153 (RPRAATVV; (6)...(6) The amino acid at this position is optionally phosphorylated; listed as Homo sapiens) [compound 153], 163 (RPRPSSAHVGL; (6)...(6) The amino acid at this position is optionally phosphorylated; listed as Homo sapiens) [compound 163], 168 (RPRSAVEQL; (4)...(4) The amino acid at this position is optionally phosphorylated; listed as Homo sapiens) [compound 168], 176 (RPRSPNMQDL; (4)...(4) The amino acid at this position is optionally phosphorylated; listed as Homo sapiens) [compound 176], 177 (RPRSPPGGP; (4)...(4) The amino acid at this position is optionally phosphorylated; listed as Homo sapiens) [compound 177], 219 (VPRPERRSSL; (8)...(8) The amino acid at this position is optionally phosphorylated; listed as Homo sapiens) [compound 219], 223 (YPGGRRSSL; (7)...(7) The amino acid at this position is optionally phosphorylated; listed as Homo sapiens) [compound 223], 228 (GRKSPPPSF; (4)...(4) The amino acid at this position is optionally phosphorylated; listed as Homo sapiens) [compound 228], 229 (GRLSPAYSL; (4)...(4) The amino acid at this position is optionally phosphorylated; listed as Homo sapiens) [compound 229], 230 (GRLSPVPVPR; (4)...(4) The amino acid at this position is optionally phosphorylated; listed as Homo sapiens) [compound 230], 234 (KRFSFKKSF; (4)...(4) The amino acid at this position is optionally phosphorylated; listed as Homo sapiens) [compound 234], 246 (RRASLSEIGF; (4)...(4) The amino acid at this position is optionally phosphorylated; listed as Homo sapiens) [compound 246], 247 (RRDSIVAEL; (4)...(4) The amino acid at this position is optionally phosphorylated; listed as Homo sapiens) [compound 247], 248 (RRDSLQKPGL; (4)...(4) The amino acid at this position is optionally phosphorylated; listed as Homo sapiens) [compound 248], 250 (RRFSIATLR; (4)...(4) The amino acid at this position is optionally phosphorylated; listed as Homo sapiens) [compound 250], 251 (RRFSLTTLR; (4)...(4) The amino acid at this position is optionally phosphorylated; listed as Homo sapiens) [compound 251], 258 (RRIDISPSTF; (6)...(6) The amino acid at this position is optionally phosphorylated; listed as Homo sapiens) [compound 258], 260 (RRISDPQVF; (4)...(4) The amino acid at this position is optionally phosphorylated; listed as Homo sapiens) [compound 260], 264 (RRLSELLRY; (4)...(4) The amino acid at this position is optionally phosphorylated; listed as Homo sapiens) [compound 264], 267 (RRMSFQKP; (4)...(4) The amino acid at this position is optionally phosphorylated; listed as Homo sapiens) [compound 267], 278 (RRSSIQSTF; (4)...(4) The amino acid at this position is optionally phosphorylated; listed as Homo sapiens) [compound 278], 288 (ISSSMHSLY; (4)...(4) The amino acid at this position is optionally phosphorylated; listed as Homo sapiens) [compound 288], 308 (KLPSPAPARK; (4)...(4) The amino acid at this position is optionally phosphorylated; listed as Homo sapiens) [compound 308], 329 (RTRSLSSLREK; (4)...(4) The amino acid at this position is optionally phosphorylated; listed as Homo sapiens) [compound 329], 343 (FKTQPVTF; (3)...(3) The amino acid at this position is optionally phosphorylated; listed as Homo sapiens) [compound 343]
